Assay results reported in patent US20220079925A1, “COMPOSITIONS COMPRISING TACROLIMUS FOR THE TREATMENT OF INTRAOCULAR INFLAMMATORY EYE DISEASES” (NOVALIQ GMBH, priority 2016, published 2022).
At least one structure is not confirmed: it was looked up by name or label, or the drawing left a doubt.

Assays:
[1] = test system: Experimental Autoimmune Uveoretinitis (EAU); test: Experimental autoimmune uveoretinitis (EAU) mouse model, eyedrop treatment; type: in vivo, C57BL/6J mice
[2] = test system: Endotoxin induced uveitis (EIU); test: Endotoxin induced uveitis (EIU) mouse model, eyedrop treatment; type: in vivo, C57BL/6J mice; conditions: EIU mice

C[C@@H]1C[C@H]2[C@@H]3CCC4=CC(=O)C=C[C@]4(C)[C@@]3(F)[C@@H](O)C[C@]2(C)[C@@]1(O)C(=O)CO [dexamethasone]
clinical findings (fundus images) ([1]; EAU mice, day 25 p.i., eyedrops 3 times per day from day 14 p.i.): Mild inflammation
clinical score ([1]; EAU mice, day 25 p.i., versus untreated mice): significantly lower
histological findings (H-E staining) ([1]; EAU mice, eyes collected day 25 p.i.): Small numbers of immune cell infiltration and granulomatous lesions
overall histopathological score of EAU ([1]; day 25 p.i., compared to untreated controls): significantly lower
histopathological score ([2]; day 2, versus untreated control EIU eyes): significantly lower
severity of intraocular inflammation (clinical score) ([2]; eyedrops 3 times per day, 48 h, compared to control and Tacrolimus/PBS groups): reduced
histological findings (H-E staining) ([2]; eyes collected day 2): Mild cell infiltration in the vitreous and retina
